This is one part of the list. Many values rest on one well or one pass, so single values are uncertain.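 The apoptosis fraction was the count of cleaved-PARP antibody-stained nuclei relative to all DNA-stained nuclei, imaged in 1,536-well plates. Screening doses were set so most cells survived, and baseline and induced cleaved-PARP levels vary greatly across cell lines.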
Legend:
Test in all cases: cleaved PARP positive nuclei fraction relative to DMSO control; melanoma cells; higher = more apoptosis
Conditions in all cases: library dose: low library concentration; 72 h
A101D = tested on: A101D
A2058 = tested on: A2058
A375 = tested on: A375
C32 = tested on: C32
CBRC013 = tested on: CBRC013 (line from a melanoma biopsy)
CBRC014 = tested on: CBRC014 (line from a melanoma biopsy)
CBRC016 = tested on: CBRC016 (line from a melanoma biopsy)
CBRC017 = tested on: CBRC017 (line from a melanoma biopsy)
CBRC034 = tested on: CBRC034 (line from a melanoma biopsy)
COLO792 = tested on: COLO792
COLO800 = tested on: COLO800
COLO829 = tested on: COLO829
G361 = tested on: G361
IPC-298 = tested on: IPC-298
IST-MEL1 = tested on: IST-MEL1
LOXIMVI = tested on: LOXIMVI
501Mel = tested on: 501Mel
LB2518-MEL = tested on: LB2518-MEL

SMILES | cleaved PARP positive nuclei fraction (A101D) [%] | cleaved PARP positive nuclei fraction (A2058) [%] | cleaved PARP positive nuclei fraction (A375) [%] | cleaved PARP positive nuclei fraction (C32) [%] | cleaved PARP positive nuclei fraction (CBRC013) [%] | cleaved PARP positive nuclei fraction (CBRC014) [%] | cleaved PARP positive nuclei fraction (CBRC016) [%] | cleaved PARP positive nuclei fraction (CBRC017) [%] | cleaved PARP positive nuclei fraction (CBRC034) [%] | cleaved PARP positive nuclei fraction (COLO792) [%] | cleaved PARP positive nuclei fraction (COLO800) [%] | cleaved PARP positive nuclei fraction (COLO829) [%] | cleaved PARP positive nuclei fraction (G361) [%] | cleaved PARP positive nuclei fraction (IPC-298) [%] | cleaved PARP positive nuclei fraction (IST-MEL1) [%] | cleaved PARP positive nuclei fraction (LOXIMVI) [%] | cleaved PARP positive nuclei fraction (501Mel) [%] | cleaved PARP positive nuclei fraction (LB2518-MEL) [%]
O=C1NC(=O)/C(=C/c2ccc(-c3ccc(F)cc3O)o2)S1 + Cc1cc([N+](=O)[O-])ccc1NS(=O)(=O)c1cc(Cl)ccc1Cl [FH535] (first compound 1 µM, partner dose 1 µM) | 69.1 | 121 | 45.5 | 69.8 | 561 | 121 | 356 | 193 | 164 | 131 | 112 | 85.7 | 58.2 | 91.1 | 195 | 74.2 | – | –
CCN(CC)CCCCNc1ncc2cc(-c3cc(OC)cc(OC)c3)c(NC(=O)NC(C)(C)C)nc2n1 + COc1ccc(COc2ccc(Cc3cnc(N)nc3N)cc2OC)cc1 [GW2580] (first compound 0.1 µM, partner dose 1 µM) | 195 | 61.2 | 131 | 39.5 | 200 | 83.9 | – | 76.9 | 86.2 | 82.4 | 73.1 | 97 | 112 | 112 | 89.2 | 33.3 | 81.5 | 100
CN(NC(=O)CC(=O)NN(C)C(=S)c1ccccc1)C(=S)c1ccccc1 + COc1cc2ncnc(Nc3ccc(Oc4ccccc4)cc3)c2cc1OC [SrcI1] (first compound 0.006 µM, partner dose 2 µM) | 112 | 144 | 2860 | 82 | 163 | 612 | 154 | 160 | 117 | 188 | 237 | 144 | 126 | 105 | 44.8 | 64.4 | 691 | 286
N#Cc1c(O)c2c(-c3ccc(-c4ccccc4O)cc3)csc2[nH]c1=O + O=S(=O)(c1ccccc1)N(CC(F)(F)F)c1ccc(C(O)(C(F)(F)F)C(F)(F)F)cc1 [T0901317] (first compound 2 µM, partner dose 1.4 µM) | 201 | 147 | 154 | 17.3 | 80.7 | 117 | 27.6 | 243 | 461 | 65.1 | 232 | 96.5 | 196 | 181 | 185 | 58.3 | – | –
O=C1NC(=O)/C(=C/c2ccc(-c3ccc(F)cc3O)o2)S1 + CCCCCCCCCCCC1=C(O)C(=O)C=C(O)C1=O [Embelin] (first compound 1 µM, partner dose 1.2 µM) | 124 | 112 | 44.8 | 102 | 78.6 | 95.7 | 74.1 | 193 | 91.2 | 160 | 133 | 46.7 | 80.9 | 80 | 79.3 | 103 | – | –
CCCCCCCCCCCC1=C(O)C(=O)C=C(O)C1=O [Embelin] + O=c1cc(-c2cccc3c2Sc2ccccc2S3)oc(N2CCOCC2)c1 [KU55933] (first compound 1.2 µM, partner dose 1 µM) | 172 | 114 | 128 | 43.4 | 113 | 91.3 | 81.6 | 80.8 | 89.4 | 67.8 | 135 | 144 | 146 | 249 | 45.2 | 95.2 | – | –
CN(NC(=O)CC(=O)NN(C)C(=S)c1ccccc1)C(=S)c1ccccc1 + COc1ccc2c(c1)CCC1C2CCC2(C)C(NCCCCCCN3C(=O)C=CC3=O)CCC12 [U73122] (first compound 0.006 µM, partner dose 0.4 µM) | 128 | 44 | 93.6 | 73.1 | 248 | 127 | 184 | 106 | 60.5 | 144 | 171 | 188 | 81.9 | 76.7 | 133 | 47.4 | 216 | 80.8
COc1cc2ncnc(Nc3ccc(Oc4ccccc4)cc3)c2cc1OC + CC(C)CCN1c2nc(Nc3cc(F)c(O)c(F)c3)ncc2N(C)C(=O)C1C [BID1870] (first compound 2 µM, partner dose 0.2 µM) | 67.7 | 140 | 54.7 | 36 | 172 | 91 | 130 | 217 | 90.7 | 170 | 156 | 114 | 68.1 | 26.1 | 82.5 | 70 | – | –
COc1cc2c(Oc3ccc4[nH]c(C)cc4c3F)ncnc2cc1OCCCN1CCCC1 [cediranib] + O=c1cc(-c2cccc3c2Sc2ccccc2S3)oc(N2CCOCC2)c1 [KU55933] (first compound 0.4 µM, partner dose 1 µM) | 104 | 52.3 | 90.8 | 128 | 110 | 74.3 | 81.6 | 86.8 | 409 | 87.8 | 89.5 | 112 | 100 | 54.9 | 42.3 | 48.2 | – | –
CCN(CC)CCCCNc1ncc2cc(-c3cc(OC)cc(OC)c3)c(NC(=O)NC(C)(C)C)nc2n1 + COc1cc(N2CCC(N3CCN(C)CC3)CC2)ccc1Nc1ncc(Cl)c(Nc2ccccc2S(=O)(=O)C(C)C)n1 [NVP-TAE684] (first compound 0.1 µM, partner dose 0.08 µM) | 232 | 39.2 | 123 | 63.2 | 167 | 100 | 21.7 | 153 | 181 | 234 | 202 | 49.8 | 31.7 | 77.9 | 426 | 26.5 | – | –
O=C(O)c1ccc(-c2c[nH]c3ncc(-c4ccccc4)cc23)cc1C1CCCC1 + COc1ccc(-c2ccc3c(N4CCOCC4)nc(N4C[C@@H](C)O[C@@H](C)C4)nc3n2)cc1CO [KU0063794] (first compound 0.16 µM, partner dose 0.02 µM) | 135 | 104 | 170 | 103 | 99.3 | 90.1 | 34.7 | 199 | 48.4 | 81.7 | 836 | 130 | 90.2 | 43.9 | 97.5 | 42.9 | 86.2 | 84.1
CN(C)S(=O)(=O)c1ccc2c(c1)/C(=C/c1cc3c([nH]1)CCCC3)C(=O)N2 + CCCCCCCCCCCC1=C(O)C(=O)C=C(O)C1=O [Embelin] (first compound 0.4 µM, partner dose 1.2 µM) | 65.6 | 113 | 122 | 297 | 177 | 90.3 | 85.1 | 187 | 101 | 170 | 87.3 | 130 | 69.4 | 34 | 169 | 24.1 | 70.2 | 78.2
O=C(Nc1ccccc1)c1cc([N+](=O)[O-])ccc1Cl + Cc1cc([N+](=O)[O-])ccc1NS(=O)(=O)c1cc(Cl)ccc1Cl [FH535] (first compound 2 µM, partner dose 1 µM) | 189 | 45.3 | 367 | 138 | 125 | 151 | 1940 | 830 | 828 | 56.4 | 115 | 135 | 164 | 177 | 370 | 53.9 | – | –
COc1ccc(-c2ccc3c(N4CCOCC4)nc(N4C[C@@H](C)O[C@@H](C)C4)nc3n2)cc1CO + Cn1cc(/C=C2\C(=O)Nc3cccnc32)c2ccccc21 [GW441756] (first compound 0.02 µM, partner dose 0.4 µM) | 315 | 73 | 83.2 | 41.3 | 53.5 | 96.4 | 25.2 | 70.9 | 90.3 | 98.1 | 72.4 | 101 | 38.6 | 88.2 | 72.7 | 32.8 | – | –
CN(C)S(=O)(=O)c1ccc2c(c1)/C(=C/c1cc3c([nH]1)CCCC3)C(=O)N2 + CC(C)CCN1c2nc(Nc3cc(F)c(O)c(F)c3)ncc2N(C)C(=O)C1C [BID1870] (first compound 0.4 µM, partner dose 0.2 µM) | 180 | 75.7 | 40.7 | 103 | 49.5 | 105 | 85.4 | 104 | 103 | 110 | 216 | 79.1 | 147 | 246 | 42.1 | 59.9 | – | –

Complete entries from above. Values in the order: cleaved PARP positive nuclei fraction (A101D) [%]	cleaved PARP positive nuclei fraction (A2058) [%]	cleaved PARP positive nuclei fraction (A375) [%]	cleaved PARP positive nuclei fraction (C32) [%]	cleaved PARP positive nuclei fraction (CBRC013) [%]	cleaved PARP positive nuclei fraction (CBRC014) [%]	cleaved PARP positive nuclei fraction (CBRC016) [%]	cleaved PARP positive nuclei fraction (CBRC017) [%]	cleaved PARP positive nuclei fraction (CBRC034) [%]	cleaved PARP positive nuclei fraction (COLO792) [%]	cleaved PARP positive nuclei fraction (COLO800) [%]	cleaved PARP positive nuclei fraction (COLO829) [%]	cleaved PARP positive nuclei fraction (G361) [%]	cleaved PARP positive nuclei fraction (IPC-298) [%]	cleaved PARP positive nuclei fraction (IST-MEL1) [%]	cleaved PARP positive nuclei fraction (LOXIMVI) [%]	cleaved PARP positive nuclei fraction (501Mel) [%]	cleaved PARP positive nuclei fraction (LB2518-MEL) [%]
CN(C)S(=O)(=O)c1ccc2c(c1)/C(=C/c1cc3c([nH]1)CCCC3)C(=O)N2 + CC(C)CCN1c2nc(Nc3cc(F)c(O)c(F)c3)ncc2N(C)C(=O)C1C [BID1870] (first compound 0.4 µM, partner dose 0.2 µM) is listed as 180	75.7	40.7	103	49.5	105	85.4	104	103	110	216	79.1	147	246	42.1	59.9	–	–
CCN(CC)CCCCNc1ncc2cc(-c3cc(OC)cc(OC)c3)c(NC(=O)NC(C)(C)C)nc2n1 + COc1cc(N2CCC(N3CCN(C)CC3)CC2)ccc1Nc1ncc(Cl)c(Nc2ccccc2S(=O)(=O)C(C)C)n1 [NVP-TAE684] (first compound 0.1 µM, partner dose 0.08 µM) is listed as 232	39.2	123	63.2	167	100	21.7	153	181	234	202	49.8	31.7	77.9	426	26.5	–	–

Reference: the supplement of paper PMC4604168 (melanoma cell lines)
